2 substances from article PMC8670446 can be followed below.

Chains of the proteins cited; added tags and fusions are not shown.
UniProt P10591: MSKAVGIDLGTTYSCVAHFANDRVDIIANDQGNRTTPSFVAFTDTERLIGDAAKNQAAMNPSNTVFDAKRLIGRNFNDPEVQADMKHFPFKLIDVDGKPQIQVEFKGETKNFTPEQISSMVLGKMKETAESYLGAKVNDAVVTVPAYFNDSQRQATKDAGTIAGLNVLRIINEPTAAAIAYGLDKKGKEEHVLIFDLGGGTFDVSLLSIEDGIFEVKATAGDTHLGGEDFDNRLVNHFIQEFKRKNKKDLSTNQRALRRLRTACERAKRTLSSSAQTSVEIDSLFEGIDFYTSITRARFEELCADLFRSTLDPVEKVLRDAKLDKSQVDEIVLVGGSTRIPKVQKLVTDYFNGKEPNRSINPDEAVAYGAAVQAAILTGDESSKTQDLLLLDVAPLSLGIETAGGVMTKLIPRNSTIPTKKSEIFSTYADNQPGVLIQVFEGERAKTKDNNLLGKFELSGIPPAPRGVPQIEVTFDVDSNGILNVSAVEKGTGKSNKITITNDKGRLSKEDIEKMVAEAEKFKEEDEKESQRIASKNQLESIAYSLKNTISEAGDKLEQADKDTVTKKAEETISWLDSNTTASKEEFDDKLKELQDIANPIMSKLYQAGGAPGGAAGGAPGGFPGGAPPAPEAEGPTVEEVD
UniProt P25491: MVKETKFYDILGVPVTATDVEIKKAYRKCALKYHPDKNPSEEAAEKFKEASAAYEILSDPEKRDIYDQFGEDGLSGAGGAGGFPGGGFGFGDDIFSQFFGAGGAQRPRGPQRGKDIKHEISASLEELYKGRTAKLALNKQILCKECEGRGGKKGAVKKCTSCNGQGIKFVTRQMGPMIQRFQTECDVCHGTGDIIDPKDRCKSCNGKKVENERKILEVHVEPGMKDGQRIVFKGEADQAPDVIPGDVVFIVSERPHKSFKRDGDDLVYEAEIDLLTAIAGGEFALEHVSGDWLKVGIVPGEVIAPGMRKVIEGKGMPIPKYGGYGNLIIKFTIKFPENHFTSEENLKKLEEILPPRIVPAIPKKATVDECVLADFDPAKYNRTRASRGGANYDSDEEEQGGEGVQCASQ

The assay has as its target His6-SUMO [SUMO: Q12306]. The assay can be described thus: BLI; His6-SUMO immobilised on the sensor; JDPs or Ssa1 in solution; background control; both purified.

No constants are given. Whether binding was seen depends on the method and setting.

For the substance Ssa1 (from UniProt P10591 1-642), the binding result is given as “no binding”. The value for Ydj1 (from UniProt P25491 1-409) was “no binding”.
